Data source: PubChem BioAssay AID743121 (NCATS, 2013)

- Screen: 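Knock-downs that sensitise breast cancer cells to camptothecin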 (primary screen)
- Cell system: MDA-MB-231 cells, a human breast cancer line
- Knock-down reagent: single siRNA against human genes, 20 nM siRNA (0.8 pmol per well)
- Time to read-out: 120 h (drug added 48 h after transfection, read 72 h later)
- Conditions: camptothecin 20 nM (about EC30) for 72 h; vehicle 0.1% DMSO in parallel plates
- Detection: 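CellTiter-Glo ATP signal, scaled to control siRNA as percent viability; sensitisation given as log2 of untreated divided by camptothecin-treated viability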
- Direction: log2 vehicle/camptothecin viability: higher = stronger sensitisation to camptothecin
- Call rule: 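Each gene scored by redundant siRNA activity (RSA) over its individual siRNA ratios; a gene is called active at p < 0.001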
Here is one part, drawn at random, of about 26,000 reagents. 167 of all reagents (0.63%) count as active. 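Calls are per gene from RSA p-values that are not deposited; an individual active-marked siRNA can sensitise only weakly.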 Reagents against one gene are numbered here. Not all columns of the deposit are shown.

Gene | reagent | log2 vehicle/camptothecin viability | outcome
SLCO1B3 | 1 | -1.04 | inactive
SLCO1B3 | 2 | -0.2 | inactive
SLCO1B3 | 3 | 0.0123 | inactive
PTPA | 1 | -0.57 | inactive
PTPA | 2 | -0.385 | inactive
PTPA | 3 | 0.265 | inactive
PTPA | 4 | -0.301 | inactive
GH1 | 1 | -0.0364 | inactive
NEXN | 1 | -0.2 | inactive
NEXN | 2 | -0.276 | inactive
NEXN | 3 | -0.308 | inactive
NEXN | 4 | 0.068 | inactive
TUSC2 | 1 | 0.441 | inactive
TUSC2 | 2 | -0.633 | inactive
TUSC2 | 3 | -0.151 | inactive
TUSC2 | 4 | -0.0391 | inactive

Ordered by “log2 vehicle/camptothecin viability” (low to high): some entries from above
Gene | reagent | log2 vehicle/camptothecin viability | outcome
NEXN | 1 | -0.2 | inactive
GH1 | 1 | -0.0364 | inactive

The listing continues:
Gene | reagent | log2 vehicle/camptothecin viability | outcome
TNFRSF13C | 1 | 0.621 | inactive
TNFRSF13C | 2 | -0.0902 | inactive
TNFRSF13C | 3 | -0.454 | inactive
TNFRSF13C | 4 | -0.216 | inactive
MTMR3 | 1 | 0.257 | inactive
MTMR3 | 2 | -0.203 | inactive
MTMR3 | 3 | 0.101 | inactive
MTMR3 | 4 | 0.0367 | inactive
G6PD | 1 | -0.27 | inactive
G6PD | 2 | 0.307 | inactive
G6PD | 3 | 0.0702 | inactive
G6PD | 4 | -0.219 | inactive
